38 compounds from ChEMBL document CHEMBL4513141, “CO-ADD screening of NIH (USA) - Clinical Collection” (2021) can be followed below.

Where “and” joins values, the source holds several entries; their conditions need not be identical. Equal values may be shown once. Some of the results follow. Potency and affinity values are given separately.

For the experiment, the system named is Pseudomonas aeruginosa. The conditions noted are these: Concentration 20 uM, ASSAY_TEST Inhibition of Bacterial Growth, detection method Absorption (OD600), MEDIA CAMHB, plate type 384well, NBS, CORNING #3640, time 18 hr.

As usually defined, the Inhibition is the relative decrease from the control value, in per cent. As to `CC(C)(S)C(N)C(=O)O` (stereo not drawn) [DL-PENICILLAMINE], the Inhibition is on record as 10.86%.
As to `CN1C(C(=O)Nc2ccccn2)=C(O)c2ccccc2S1(=O)=O.O`, the Inhibition is given as 7.03%.
The same measure, in the same setting: the same measure for `C#C[C@]1(O)CC[C@H]2[C@@H]3CCC4=CC(=O)CC[C@@H]4[C@H]3CC[C@@]21CC` [LEVONORGESTREL]: 11.18%; for `CC[C@@]1(O)C(=O)OCc2c1cc1n(c2=O)Cc2cc3c(CN(C)C)c(O)ccc3nc2-1.Cl` [TOPOTECAN HYDROCHLORIDE]: 11.68%.
Still for that read-out and setting: the result for `Cc1ncc([N+](=O)[O-])n1CC(O)CCl` (stereo not drawn) [ORNIDAZOLE] reads 9.89%.
In the case of `CN(C)CCCN1c2ccccc2Sc2ccc(Cl)cc21.Cl` [CHLORPROMAZINE HYDROCHLORIDE], the Inhibition is recorded as 8.66%.
Take `CC(Cc1ccc(O)c(O)c1)(NN)C(=O)O.O` (stereo not drawn): the Inhibition was 12.51%.
For `Cc1[nH]c(=O)c(C#N)cc1-c1ccncc1` [MILRINONE], the Inhibition was 42.18%.
As for `CS(=O)(=O)c1ccc(C2=C(c3ccccc3)C(=O)OC2)cc1` [ROFECOXIB], the Inhibition is reported as 27.92%.
Regarding `CCC1=C[C@H]2CN(C1)Cc1c([nH]c3ccccc13)[C@@](C(=O)OC)(c1cc3c(cc1OC)N(C)[C@H]1[C@@](O)(C(=O)OC)[C@H](OC(C)=O)[C@]4(CC)C=CCN5CC[C@]31[C@@H]54)C2.O=C(O)C(O)C(O)C(=O)O.O=C(O)C(O)C(O)C(=O)O`, the Inhibition was 23.87%.
The same measure, in the same setting: the result for `NS(=O)(=O)c1cc2c(cc1Cl)N=CNS2(=O)=O` [CHLOROTHIAZIDE] reads 3.32%; that for `CC(=O)O[C@@]12CO[C@@H]1C[C@H](O)[C@@]1(C)C(=O)[C@H](O)C3=C(C)[C@@H](OC(=O)[C@H](O)[C@@H](NC(=O)OC(C)(C)C)c4ccccc4)C[C@](O)([C@@H](OC(=O)c4ccccc4)[C@H]21)C3(C)C`, 16.38%; that for `COc1cc(C(=O)NS(=O)(=O)c2ccccc2C)ccc1Cc1cn(C)c2ccc(NC(=O)OC3CCCC3)cc12` [ZAFIRLUKAST], 41.4%.
The same measure, in the same setting: the result for `C[C@H]1[C@@H](OC(=O)CCC(=O)O)O[C@@H]2O[C@@]3(C)CC[C@H]4[C@H](C)CC[C@@H]1[C@@]24OO3` reads -2.78%; that for `COc1ccc(CC2c3cc(OC)c(OC)cc3CC[N+]2(C)CCC(=O)OCCCCCOC(=O)CC[N+]2(C)CCc3cc(OC)c(OC)cc3C2Cc2ccc(OC)c(OC)c2)cc1OC.O=S(=O)(O)c1ccccc1` (stereo not drawn), 8.38%.
Still for that read-out and setting: the result for `NS(=O)(=O)c1cc(C(=O)O)c(NCc2ccco2)cc1Cl` [FUROSEMIDE] reads 20.35%.
As to `CC1(C)O[C@@H]2C[C@H]3[C@@H]4CCC5=CC(=O)C=C[C@]5(C)[C@@]4(F)[C@@H](O)C[C@]3(C)[C@]2(C(=O)CO)O1` [TRIAMCINOLONE ACETONIDE], the Inhibition is recorded as 16.43%.
`C[C@@H]1C[C@H]2[C@@H]3CCC4=CC(=O)C=C[C@]4(C)[C@@]3(F)[C@@H](O)C[C@]2(C)[C@@]1(O)C(=O)CO` [DEXAMETHASONE]: the Inhibition (20 µM) was 2.35% and 9.21%.
On to `C[C@@H]1C[C@H]2[C@@H]3CCC4=CC(=O)C=C[C@]4(C)[C@@]3(F)[C@@H](O)C[C@]2(C)[C@H]1C(=O)CO` [DESOXIMETASONE], for which the Inhibition is on record as 8.44%.
`CN(C)CCCN1c2ccccc2CCc2ccccc21.Cl` [IMIPRAMINE HYDROCHLORIDE]: the Inhibition came to 13.21%.
Same read-out and setting: the result for `CC(C)NCC(O)c1ccc(NS(C)(=O)=O)cc1.Cl` (stereo not drawn) [SOTALOL HYDROCHLORIDE] reads 10.81%.
As for `CCCCC1=NC2(CCCC2)C(=O)N1Cc1ccc(-c2ccccc2-c2nnn[nH]2)cc1` [IRBESARTAN], the Inhibition was 1.45%.
On to `CC(C)(C(=O)c1cccnc1)c1cccnc1` [METYRAPONE], for which the Inhibition is on record as 18.6%.
Regarding `C#C[C@]1(O)CC[C@H]2[C@@H]3[C@H](C)CC4=C(CCC(=O)C4)[C@H]3CC[C@@]21C` [TIBOLONE], the Inhibition was determined as 10.6%.
Still for that read-out and setting: the same measure for `CC(=O)C1(O)CCC2C3CC(C)C4=CC(=O)C=CC4(C)C3(F)C(O)CC21C` (stereo not drawn): 4.77%; for `Cc1ccsc1C(=CCCN1CCC[C@@H](C(=O)O)C1)c1sccc1C.Cl` [TIAGABINE HYDROCHLORIDE]: 46.77%.
Consider `CC(=O)O.CC(C)C[C@H](NC(=O)[C@@H](COC(C)(C)C)NC(=O)[C@H](Cc1ccc(O)cc1)NC(=O)[C@H](CO)NC(=O)[C@H](Cc1c[nH]c2ccccc12)NC(=O)[C@H](Cc1c[nH]cn1)NC(=O)[C@H]1CCC(=O)N1)C(=O)N[C@H](CCCNC(=N)N)C(=O)N1CCC[C@@H]1C(=O)NNC(N)=O`, for which the Inhibition is given as 12.98%.
Turning to `CCCc1c(OCCCCc2nnn[nH]2)ccc(C(C)=O)c1O` [TOMELUKAST], the Inhibition amounted to 5.99%.
In the case of `CC(N)(Cc1ccc(O)c(O)c1)C(=O)O` (stereo not drawn) [METHYLDOPA (RACEMIC)], the Inhibition was determined as 18.91%.
Same read-out and setting: the same measure for `CCN(CC)CCOc1ccc(C(=C(Cl)c2ccccc2)c2ccccc2)cc1.O=C(O)CC(O)(CC(=O)O)C(=O)O` [CLOMIPHENE CITRATE]: 10.02%; for `CN1CC(=O)N2[C@H](c3ccc4c(c3)OCO4)c3[nH]c4ccccc4c3C[C@@H]2C1=O`: 15.72%; for `Cl.O.O=C1N(c2ccccc2)c2ccccc2C1(Cc1ccncc1)Cc1ccncc1`: 12.37%.
Same read-out and setting: the result for `CCCCCCCCCCC[C@@H](C[C@@H]1OC(=O)[C@H]1CCCCCC)OC(=O)[C@H](CC(C)C)NC=O` [ORLISTAT] reads 39.77%; that for `NNCCc1ccccc1.O=S(=O)(O)O` [PHENELZINE SULFATE], 11.1%; that for `COc1ccccc1N1CCN(CC(O)COc2cccc3ccccc23)CC1` (stereo not drawn) [NAFTOPIDIL], 8.59%.
Same read-out and setting: the same measure for `Cl.O.c1cnc(N2CCN(Cc3ccc4c(c3)OCO4)CC2)nc1`: 12.71%; for `Nc1nc(N)nc(-c2cc(Cl)ccc2Cl)n1.O=C(O)/C=C\C(=O)O` [IRSOGLADINE MALEATE]: 4.22%.
In the case of `Cn1ccnc1S` [METHIMAZOLE], the Inhibition is given as 18.29%.
